Results deposited as PubChem BioAssay AID1508588 (Peter MacCallum Cancer Centre, 2020).

Test: 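Which gene losses make BRAF-mutant melanoma cells more responsive to vemurafenib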 (primary screen)
Cells: human WM266.4 melanoma cells (BRAF V600 mutant)
Knock-down reagent: siRNA pool against human genes, 40 nM
Time to read-out: 96 h from transfection to read-out
Treatment: vemurafenib 300 nM (about IC25), added 48 h after transfection, for 48 h; comparison arm got DMSO vehicle only
Read-out: 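Cell gain (DAPI nuclei at end minus before drug, mean of two replicates) and medium lactate by absorbance per cell, both as ratio to non-targeting siRNA, also grouped into fold-change classes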
Scale: cell gain with vemurafenib: higher = more cell gain than with non-targeting siRNA; lactate per cell with vemurafenib: higher = more lactate made per cell
Rule for the call: 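a knock-down counts as enhancing when its fold-change classes with vehicle and with vemurafenib, taken together, show a stronger drug effect on cell gain or lactate per cell; exact class pairs not stated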
Meaning of the calls: active = enhances vemurafenib effect; inactive = no enhancement seen
In all, the deposit lists about 18,000 reagents; this is a random part of them. Over the whole deposit, 790 (4.4%) got an active call. 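Calls rest on a combination of fold-change classes in drug and vehicle arms, not all shown here.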

cell gain with vemurafenib	lactate per cell with vemurafenib	outcome	Target gene
0.62	0.86	inactive	LYST (GeneID 1130)
1	0.74	inactive	TRIM62 (GeneID 55223)
1.04	0.84	inactive	LILRA3 (GeneID 11026)
0.43	0.96	inactive	LMO2 (GeneID 4005)
0.83	0.76	inactive	ANKRD10 (GeneID 55608)
0.46	0.46	active	SELENOF (GeneID 9403)
0.53	0.66	inactive	MEP1B (GeneID 4225)
1.05	0.92	inactive	LGALS4 (GeneID 3960)
0.88	0.45	inactive	HSPA14 (GeneID 51182)
0.68	0.32	inactive	SLC16A6 (GeneID 9120)
0.53	1.87	inactive	FNTA (GeneID 2339)
0.72	0.55	inactive	PLPP5 (GeneID 84513)
0.77	1.39	inactive	STK11IP (GeneID 114790)
0.72	0.83	inactive	DCAF8 (GeneID 50717)
0.87	0.62	inactive	DBF4B (GeneID 80174)
0.88	0.68	inactive	SPAG17 (GeneID 200162)
0.6	0.55	inactive	SCFD1 (GeneID 23256)
0.71	0.54	inactive	NIPSNAP2 (GeneID 2631)

In a second layout: entries from further up.
{"Target gene": "TRIM62 (GeneID 55223)", "cell gain with vemurafenib": 1, "lactate per cell with vemurafenib": 0.74, "outcome": "inactive"}
{"Target gene": "LILRA3 (GeneID 11026)", "cell gain with vemurafenib": 1.04, "lactate per cell with vemurafenib": 0.84, "outcome": "inactive"}
{"Target gene": "LMO2 (GeneID 4005)", "cell gain with vemurafenib": 0.43, "lactate per cell with vemurafenib": 0.96, "outcome": "inactive"}
{"Target gene": "ANKRD10 (GeneID 55608)", "cell gain with vemurafenib": 0.83, "lactate per cell with vemurafenib": 0.76, "outcome": "inactive"}
{"Target gene": "SELENOF (GeneID 9403)", "cell gain with vemurafenib": 0.46, "lactate per cell with vemurafenib": 0.46, "outcome": "active"}

Continued:
cell gain with vemurafenib	lactate per cell with vemurafenib	outcome	Target gene
0.33	1.72	inactive	ARHGAP20 (GeneID 57569)
0.67	1.43	inactive	MTG2 (GeneID 26164)
0.55	1.39	inactive	SMPD4 (GeneID 55627)
0.54	1.23	inactive	HLA-DOA (GeneID 3111)
0.68	0.86	inactive	RAB6A (GeneID 5870)
0.4	1.41	inactive	ATP6V0C (GeneID 527)
0.54	0.37	inactive	ZNF589 (GeneID 51385)
0.25	2.05	inactive	SESN3 (GeneID 143686)
0.39	1.42	inactive	HAPLN3 (GeneID 145864)
0.69	0.83	inactive	CIMIP4 (GeneID 339669)
1.23	0.57	inactive	MT2A (GeneID 4502)
0.88	0.62	inactive	DNMT3L (GeneID 29947)
0.44	0.85	inactive	RGS9BP (GeneID 388531)
0.32	0.51	inactive	RB1CC1 (GeneID 9821)
1.22	0.56	inactive	ZP1 (GeneID 22917)
0.37	0.82	inactive	ADAM7 (GeneID 8756)
